# Paper doi:10.1101/2020.05.31.126441
# No constants are given. Whether binding was seen depends on the method and setting. In cells and extracts the contact can be indirect. Sequences can lack the tags named with a protein.
# T1: Snx14^FL-3XFlag (human) (UniProt Q9Y5W7)
# T1 sequence: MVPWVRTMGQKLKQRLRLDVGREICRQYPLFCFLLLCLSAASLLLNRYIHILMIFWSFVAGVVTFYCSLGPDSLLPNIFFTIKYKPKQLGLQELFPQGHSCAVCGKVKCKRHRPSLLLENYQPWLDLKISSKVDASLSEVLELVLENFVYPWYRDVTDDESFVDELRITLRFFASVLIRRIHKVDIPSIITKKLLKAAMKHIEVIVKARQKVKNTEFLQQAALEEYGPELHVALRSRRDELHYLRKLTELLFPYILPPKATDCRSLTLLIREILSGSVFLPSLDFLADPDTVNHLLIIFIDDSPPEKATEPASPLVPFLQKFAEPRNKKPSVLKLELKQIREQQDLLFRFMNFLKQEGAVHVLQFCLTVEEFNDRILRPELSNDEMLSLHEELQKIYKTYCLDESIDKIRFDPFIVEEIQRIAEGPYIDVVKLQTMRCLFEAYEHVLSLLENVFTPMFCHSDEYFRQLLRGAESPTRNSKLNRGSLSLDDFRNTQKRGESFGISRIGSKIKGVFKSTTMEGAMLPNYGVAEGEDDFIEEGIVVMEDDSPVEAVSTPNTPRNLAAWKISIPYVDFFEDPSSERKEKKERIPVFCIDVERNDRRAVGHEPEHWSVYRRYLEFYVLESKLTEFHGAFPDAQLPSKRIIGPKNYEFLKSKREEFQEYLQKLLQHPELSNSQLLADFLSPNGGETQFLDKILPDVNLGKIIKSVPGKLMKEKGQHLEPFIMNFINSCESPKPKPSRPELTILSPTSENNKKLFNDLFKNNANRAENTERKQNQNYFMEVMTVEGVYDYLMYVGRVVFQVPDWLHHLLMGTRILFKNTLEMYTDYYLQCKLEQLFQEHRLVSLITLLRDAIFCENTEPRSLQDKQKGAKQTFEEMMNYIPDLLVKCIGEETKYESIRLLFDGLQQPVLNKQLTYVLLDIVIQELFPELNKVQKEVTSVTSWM
# Molecular target: T1, Snx14^FL-3XFlag (human)
# Test: co-IP
binder,measurement,value
"Perilipin 3 (PLIN3) (protein, UniProt O60664 1-434) MSADGAEADGSTQVTVEEPVQQPSVVDRVASMPLISSTCDMVSAAYASTKESYPHIKTVCDAAEKGVRTLTAAAVSGAQPILSKLEPQIASASEYAHRGLDKLEENLPILQQPTEKVLADTKELVSSKVSGAQEMVSSAKDTVATQLSEAVDATRGAVQSGVDKTKSVVTGGVQSVMGSRLGQMVLSGVDTVLGKSEEWADNHLPLTDAELARIATSLDGFDVASVQQQRQEQSYFVRLGSLSERLRQHAYEHSLGKLRATKQRAQEALLQLSQVLSLMETVKQGVDQKLVEGQEKLHQMWLSWNQKQLQGPEKEPPKPEQVESRALTMFRDIAQQLQATCTSLGSSIQGLPTNVKDQVQQARRQVEDLQATFSSIHSFQDLSSSILAQSRERVASAREALDHMVEYVAQNTPVTWLVGPFAPGITEKAPEEKK",binding,no binding
